Assay: Foaming test, foam height
Assay type: physicochemical

Row | Substance | Height (mL) after 5 seconds (Chicago Tap Water) | Height (mL) after 5 minutes (Chicago Tap Water) | Height (mL) after 5 seconds (w/Castor Oil) [mL] | Height (mL) after 5 minutes (w/Castor Oil) [mL]
1 | linear alkylbenzene sulfonic acid, sodium salt [NaLAS] | 500+ mL | 500+ mL | 200 | 200
2 | C16 methyl ester sulfonate [MES C16] | 220 mL | 142.5 mL | 157.5 | 135

Reference: patent publication EP2277860B1, “Compositions comprising sulfonated estolides and alkyl ester sulfonates, methods of making them, and compositions and processes employing them” (STEPAN COMPANY, priority 2009, dated 2011)
